In US20030203415A1 (published 2003):
Results are given in words; binding and its absence hold for the method and conditions named. Some binding calls cover weakened binding; strength is not graded here.

T1: H6NA3 (UniProt P06731 35-144; P06731 499-590, limits assumed)
T1 construct: domain: N domain;domain: A3 domain; recombinant truncated target
T1 sequence: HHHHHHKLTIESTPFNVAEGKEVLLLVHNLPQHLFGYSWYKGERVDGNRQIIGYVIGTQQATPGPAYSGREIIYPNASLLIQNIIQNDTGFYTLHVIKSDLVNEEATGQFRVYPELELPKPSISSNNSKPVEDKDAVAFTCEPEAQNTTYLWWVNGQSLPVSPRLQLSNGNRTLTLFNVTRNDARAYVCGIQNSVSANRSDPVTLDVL


Molecular target: T1, H6NA3
Assay: phage ELISA on NA3

| binding | Binder |
| --- | --- |
| binds | DWVCEYVKSQWSCNPL [315A-19-A10] |
| binds | DWVCEFSKVQWYCNPL [315A-16-C04] |
| binds | DWVCEWFKPQWICNLL [315A-22-B06] |
| binds | DWVCEIVKNQWHCNVL [315A-22-D06] |
| binds | DWVCEWGKNQWTCNPL [315A-22-E12] |
| binds | DWVCEFEKGQWTCNVL [315A-23-F10] |
| binds | DWVCNLFKNQWFCNVW [315A-20-A06] |
| binds | DWVCNLFKNQWFCDVH [315A-20-A12] |
| binds | DWICNLFKNQWFCDIR [315A-20-B07] |
| binds | DWVCEWLKMQWACNIL [315A-20-B08] |
| binds | DWVCEFIKDQWYCDLA [315A-20-B09] |
| binds | DWVCNLFKNQWFCDVV [315A-20-C09] |
| binds | DWVCEWLKMQWACNVL [315A-20-C10] |
| binds | DWVCEWLKNQWWCNVL [315A-20-D06] |
| binds | DWVCELLKNQWFCNVL [315A-20-D07] |
| binds | DWVCNLFKNQWFCNVL [315A-20-F11] |
| binds | DWVCNLFKNQWFCDVM [315A-20-G10] |
| binds | DWVCEWFKAQWFCNML [315A-20-G12] |
| binds | DWICNLFKNQWFCDQL [315A-20-H06] |
| binds | DWMCNLFKNQWFCDVQ [315A-20-H07] |
| binds | DWVCEFDKGQWNCNIL [315A-20-H09] |
| binds | DWICNLFKNQWFCDAW [315A-21-A06] |
| binds | DWVCEFDKLQWVCNVL [315A-21-A12] |

| binding | Binder |
| --- | --- |
| binds | DWVCNLFKNQWFCDQM [315A-21-E07] |
| binds | DWVCEFFKSQWYCNIL [315A-21-F07] |
| binds | DWVCEWLKMQWACNML [315A-21-H09] |
| binds | DWVCEYFKNQWLCNIL [315A-17-A06] |
| binds | DWVCEWLKMQWACNIL [315A-17-B01] |
| binds | DWVCEWLKMQWFCNAL [315A-17-B02] |
| binds | DWVCEWLKMQWACNVL [315A-17-B05] |
| binds | DWVCEWLKMQWACNML [315A-17-B06] |
| binds | DWVCEWLKPQWYCNSL [315A-17-B12] |
| binds | DWVCNLFKNQWFCDLS [315A-17-E12] |
| binds | DWVCEWLKSQWFCNSL [315A-17-F04] |
| binds | DWVCEFIKSQWFCNVL [315A-17-G08] |
| binds | DWVCEWLKHQWFCNAL [315A-18-B02] |
| binds | DWVCEIVKNQWICNPL [315A-18-E01] |
| binds | DWVCEFFKDQWFCNIL [315A-18-E02] |
| binds | DWVCEFLKMQWACNVL [315A-18-E04] |
| binds | DWMCNLFKNQWFCDLM [304A-11-A02] |
| binds | DWVCNLFKNQWFCDLM [304A-11-F02] |
| binds | DWICNLFKNQWFCDQM [304A-11-E04] |
| binds | NWICNLFKNQWFCDQE [304A-11-D06] |
| binds | DWICNLFKNQWFCQVK [304A-11-B07] |
| binds | DWVCNLFKNQWFCDVM [304A-11-H07] |
| binds | DWMCNLFKNQWFCDQI [304A-11-C09] |

| binding | Binder |
| --- | --- |
| binds | IWDCNLFKNQWFCPAP [304A-11-H10] |
| binds | DWICNLFKNQWFCDIR [304A-11-A11] |
| binds | DWMCNLFKNQWFCDVV [304A-11-G11] |
| binds | DWMCNLFKNQWFCDVV [304A-11-C02] |
| binds | DWICNLFKNQWFCDAI [304A-11-H11] |
| binds | DWICNLFKNQWFCDMA [304A-11-A12] |
| binds | DWVCEFLKMQWACNVL [304A-12-E01] |
| binds | DWVCNLFKNQWFCNVM [304A-12-A02] |
| binds | AWPCNLFKNQWFCPPQ [304A-12-H02] |
| binds | DWVCNLFKNQWFCDVL [304A-12-A05] |
| binds | DWVCNLFKNQWFCDKW [304A-12-C05] |
| binds | DWVCEWLKMQWACNML [304A-12-F05] |
| binds | DWVCDFFFNQWTCNLL [304A-12-C09] |
| binds | DWVCEMFKAQWFCNAL [304A-12-D09] |
| binds | DWICNLFKNQWFCDAW [304A-12-E09] |
| binds | DWVCNLFKNQWFCDVW [304A-12-G12] |
| binds | DWVCEIDKGQWTCNPL [304A-13-C01] |
| binds | DWVCNLFKNQWFCNPF [304A-13-B02] |
| binds | DWVCNLFKNQWFCDVQ [304A-13-A03] |
| binds | DWICNLFKNQWFCNEA [304A-13-A12] |
| binds | DWVCNLFFGQWTCNLL [304A-13-E04] |
| binds | DWICNLFKNQWFCEAH [304A-13-F05] |
